Test results: article PMC7616783, “A combined structural and biochemical approach reveals translocation and stalling of UvrB on the DNA lesion as a mechanism of damage verification in bacterial nucleotide excision repair” (DNA repair, 2019)
No constants are given. Whether binding was seen depends on the method and setting. Some binding calls cover weakened binding; strength is not graded here.

How the values were obtained:
[1] = molecular target: T1, Thermotoga maritima UvrA (Thermotoga maritima, UniProt Q9WYV0 1-916); test: negative-stain EM single-particle reconstruction; SEC-purified UvrA—UvrB—DNA complex at 15 μg/ml on carbon-coated grids, 2% uranyl formate; 10,523 particles, 25.5 Å, no symmetry imposed; DNA not visible; both purified
T1 construct: UvrA, Thermotoga maritima; theoretical MW of the dimer printed as 205.8 kDa; the modelling section counts residues 1-916; In the assays it stood with fluorescein-modified DNA, ADP and Mg2+; also called Tm-UvrA; T. maritima (Tm) UvrA; source: BL21 STAR (DE3), pET28-SUMO based plasmid, purified (nickel resin, Ulp1 digestion, nickel resin, gel filtration)
T1 sequence: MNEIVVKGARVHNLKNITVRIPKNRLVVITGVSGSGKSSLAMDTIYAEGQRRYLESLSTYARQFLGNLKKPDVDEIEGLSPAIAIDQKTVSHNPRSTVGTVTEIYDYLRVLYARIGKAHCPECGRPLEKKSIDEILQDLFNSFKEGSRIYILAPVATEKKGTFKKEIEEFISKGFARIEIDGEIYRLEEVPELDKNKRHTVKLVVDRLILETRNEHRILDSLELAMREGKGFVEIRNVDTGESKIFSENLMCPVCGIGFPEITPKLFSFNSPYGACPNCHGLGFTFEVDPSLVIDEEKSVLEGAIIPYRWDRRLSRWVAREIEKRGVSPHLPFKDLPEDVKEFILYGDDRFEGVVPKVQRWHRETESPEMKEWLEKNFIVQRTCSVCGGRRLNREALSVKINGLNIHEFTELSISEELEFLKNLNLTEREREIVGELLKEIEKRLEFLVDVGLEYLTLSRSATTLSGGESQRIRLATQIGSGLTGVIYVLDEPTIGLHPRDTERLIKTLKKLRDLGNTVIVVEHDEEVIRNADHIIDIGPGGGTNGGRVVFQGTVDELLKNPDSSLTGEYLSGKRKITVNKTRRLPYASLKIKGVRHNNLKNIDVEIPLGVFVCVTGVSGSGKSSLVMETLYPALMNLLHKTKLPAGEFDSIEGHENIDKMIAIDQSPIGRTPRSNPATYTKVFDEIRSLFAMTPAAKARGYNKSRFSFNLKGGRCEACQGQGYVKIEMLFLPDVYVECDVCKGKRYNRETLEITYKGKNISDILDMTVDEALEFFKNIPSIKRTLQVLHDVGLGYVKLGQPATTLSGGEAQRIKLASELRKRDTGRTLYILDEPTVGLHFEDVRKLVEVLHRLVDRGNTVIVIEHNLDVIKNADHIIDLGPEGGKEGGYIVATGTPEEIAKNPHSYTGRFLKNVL

[2] = molecular target: T1, Thermotoga maritima UvrA; test: SEC-MALS; data not shown: peak fractions of the UvrA—UvrB—DNA complex pooled and run again over SEC-MALS; both purified

binding [1]: binds
binding [2]: binds
B1: Thermus thermophilus UvrB (natural protein, UniProt Q56243 1-665, looked up)
chain: MTFRYRGPSPKGDQPKAIAGLVEALRDGERFVTLLGATGTGKTVTMAKVIEALGRPALVLAPNKILAAQLAAEFRELFPENAVEYFISYYDYYQPEAYVPGKDLYIEKDASINPEIERLRHSTTRSLLTRRDVIVVASVSAIYGLGDPREYRARNLVVERGKPYPREVLLERLLELGYQRNDIDLSPGRFRAKGEVLEIFPAYETEPIRVELFGDEVERISQVHPVTGERLRELPGFVLFPATHYLSPEGLEEILKEIEKELWERVRYFEERGEVLYAQRLKERTLYDLEMLRVMGTCPGVENYARYFTGKAPGEPPYTLLDYFPEDFLVFLDESHVTVPQLQGMYRGDYARKKTLVDYGFRLPSALDNRPLRFEEFLERVSQVVFVSATPGPFELAHSGRVVEQIIRPTGLLDPLVRVKPTENQILDLMEGIRERAARGERTLVTVLTVRMAEELTSFLVEHGIRARYLHHELDAFERQALIRDLRLGHYDCLVGINLLREGLDIPEVSLVAILDADKEGFLRSERSLIQTIGRAARNARGEVWLYADRVSEAMQRAIEETNRRRALQEAYNLEHGITPETVRKEVRAVIRPEGYEEAPLEADLSGEDLRERIAELELAMWQAAEALDFERAARLRDEIRALEARLQGVRAPEPVPGGRKRKRR
notes: theoretical MW printed as 76.2 kDa; Two UvrB monomers stand in the complex, one on each side of the UvrA dimer; The complex is heterologous (T. maritima UvrA with T. thermophilus UvrB); also called Tt-UvrB; Thermus thermophilus (Tt) UvrB; source: BL21-CodonPlus(DE3)-RIL, pET28 based plasmid, purified (nickel resin, HRV 3C digestion, nickel resin, gel filtration)
